Laboratory results taken from US4072685A, “3-(3',4'-Disubstituted) phenyl piperidines” (Roussel Uclaf, priority 1975, dated 1978).
Where a name gives a salt, the structure may show the parent alone. At least one compound was matched to its structure with a doubt left.

What was measured:
Format in all cases: in vivo
[1] = tested on: nigrostriatal bundle (dopaminergic activity); experiment: Rotating behavior after unilateral injury of nigrostriatal bundle, test (a): anodic lesion of right striatum; settings: 25 mg/kg, i.p., male rats, 1 1/2 hours
Method: (§1) Among the animals having undergone a unilateral lesion of nigrostriatal bundle, the substances, having a dopaminergic activity induce a rotating behavior. The animals were male rats weighing about 250 g and female mice weighing about 22 g. The lesion was effected in test (a) in the right striatum of the male rats with a 2 mA anodic current for a duration of 30 seconds /Anden et al, Acta. Pharmacol. Toxicol., Vol. 24 (1966), p. 263-274/. The tested compounds were administered intraperitoneally to groups of 6 animals and they were individually placed in a rotometer which counted the number of rotations of each animal in two directions. Each test was continued for 11/2 hours.

[2] = tested on: nigrostriatal bundle (dopaminergic activity); experiment: Rotating behavior after unilateral injury of nigrostriatal bundle, test (c): striatum lesion by aspiration; settings: 100 mg/kg, i.p., female mice, observed for an hour
Method: as §1, with “Each test was continued for 11/2 hours.” left out
In test (c) with female mice, a lesion of the striatum was effected with a hypodermic needle with a diameter of 0.5 mm by aspiration under vacuum for 5 seconds with the method of Lotti /Life Science, Vol. 10 (1971) I, p. 781-789/.

[3] = tested on: nigrostriatal bundle (dopaminergic activity); experiment: Rotating behavior after unilateral injury of nigrostriatal bundle, test (b): 6-hydroxydopamine lesion of substantia nigra; settings: 25 mg/kg, i.p., male rats, 1 1/2 hours
Method: as §1
In test (b) with the male rats, lesion was effected in the substantia nigra of each rat with 6-hydroxydopamine monohydrochloride at a dose of 20 μg per 4 μl of physiological serum containing 0.2 mg/ml of ascorbic acid by the method of Ungerstedt /Acta. physiol. scand., 1971 a, supp 367, p. 69-93/and the same conditions as in (a) were used.

SMILES: CCCN1CCCC(c2ccc(O)c(O)c2)C1 (stereo not drawn) [Example 4, N-propyl-3-(3',4'-dihydroxyphenyl)-piperidine hydrobromide]
- rotations, test (a) [1]: ipsilateral rotation
- rotation, test (c) [2]: ipsilateral rotation
- rotations, test (b) [3]: contralateral rotations
